According to paper PMC4199495:
No constants are given. Whether binding was seen depends on the method and setting. In cells and extracts the contact can be indirect. Some entries that bind do so weakly or less than the wild type.

Protein sequences, listed by entry. Tags and fused reporters are not part of them.
UniProt Q9VMJ7: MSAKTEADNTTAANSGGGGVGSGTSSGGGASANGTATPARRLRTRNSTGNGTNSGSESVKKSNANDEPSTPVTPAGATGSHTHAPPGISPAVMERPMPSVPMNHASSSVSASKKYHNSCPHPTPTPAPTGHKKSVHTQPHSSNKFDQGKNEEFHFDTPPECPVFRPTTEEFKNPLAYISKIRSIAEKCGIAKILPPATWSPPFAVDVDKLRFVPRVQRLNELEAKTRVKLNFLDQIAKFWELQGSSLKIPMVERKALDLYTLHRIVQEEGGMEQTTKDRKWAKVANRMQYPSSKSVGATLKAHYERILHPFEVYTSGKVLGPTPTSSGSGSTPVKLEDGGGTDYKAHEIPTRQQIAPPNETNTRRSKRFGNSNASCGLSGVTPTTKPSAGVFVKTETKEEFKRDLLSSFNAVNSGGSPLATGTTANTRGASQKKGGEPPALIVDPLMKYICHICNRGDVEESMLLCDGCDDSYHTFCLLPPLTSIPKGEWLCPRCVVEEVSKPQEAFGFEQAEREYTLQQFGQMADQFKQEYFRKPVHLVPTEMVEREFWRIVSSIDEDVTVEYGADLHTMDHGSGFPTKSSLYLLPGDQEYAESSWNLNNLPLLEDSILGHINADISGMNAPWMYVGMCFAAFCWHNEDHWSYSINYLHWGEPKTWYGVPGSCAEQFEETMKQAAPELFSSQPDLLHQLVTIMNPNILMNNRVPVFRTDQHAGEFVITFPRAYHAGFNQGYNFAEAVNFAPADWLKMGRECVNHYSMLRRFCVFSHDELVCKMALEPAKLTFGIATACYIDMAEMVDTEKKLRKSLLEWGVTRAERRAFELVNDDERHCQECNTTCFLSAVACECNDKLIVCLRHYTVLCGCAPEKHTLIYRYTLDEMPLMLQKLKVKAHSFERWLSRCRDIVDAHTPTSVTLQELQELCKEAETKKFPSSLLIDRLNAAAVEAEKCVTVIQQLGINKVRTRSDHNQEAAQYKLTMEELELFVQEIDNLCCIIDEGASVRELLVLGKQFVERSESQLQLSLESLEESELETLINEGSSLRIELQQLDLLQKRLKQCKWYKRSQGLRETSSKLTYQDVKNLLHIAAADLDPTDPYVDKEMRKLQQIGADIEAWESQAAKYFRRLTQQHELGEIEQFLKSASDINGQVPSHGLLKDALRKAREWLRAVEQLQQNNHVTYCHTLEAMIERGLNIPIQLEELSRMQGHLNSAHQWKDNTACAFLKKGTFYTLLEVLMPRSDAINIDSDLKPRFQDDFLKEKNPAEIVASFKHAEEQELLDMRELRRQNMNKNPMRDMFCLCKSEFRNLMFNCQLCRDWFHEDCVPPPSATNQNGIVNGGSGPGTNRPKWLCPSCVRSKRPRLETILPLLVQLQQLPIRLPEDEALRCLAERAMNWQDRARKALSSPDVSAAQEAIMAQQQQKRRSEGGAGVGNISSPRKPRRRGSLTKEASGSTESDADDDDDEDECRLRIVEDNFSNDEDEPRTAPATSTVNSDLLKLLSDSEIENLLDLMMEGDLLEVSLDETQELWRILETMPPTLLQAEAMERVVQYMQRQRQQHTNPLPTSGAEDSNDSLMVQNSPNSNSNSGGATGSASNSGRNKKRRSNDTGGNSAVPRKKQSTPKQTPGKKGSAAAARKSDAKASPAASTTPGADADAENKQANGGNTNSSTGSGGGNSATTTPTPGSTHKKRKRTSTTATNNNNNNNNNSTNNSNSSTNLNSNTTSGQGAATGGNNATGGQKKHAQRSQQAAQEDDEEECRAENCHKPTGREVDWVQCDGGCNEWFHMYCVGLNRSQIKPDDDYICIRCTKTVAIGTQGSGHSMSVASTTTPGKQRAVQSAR

Target: T1, HDAC4 (endogenous, 3rd instar larval extract) (Drosophila (endogenous in 3rd instar larvae)) (UniProt Q9VYF3)
T1 sequence: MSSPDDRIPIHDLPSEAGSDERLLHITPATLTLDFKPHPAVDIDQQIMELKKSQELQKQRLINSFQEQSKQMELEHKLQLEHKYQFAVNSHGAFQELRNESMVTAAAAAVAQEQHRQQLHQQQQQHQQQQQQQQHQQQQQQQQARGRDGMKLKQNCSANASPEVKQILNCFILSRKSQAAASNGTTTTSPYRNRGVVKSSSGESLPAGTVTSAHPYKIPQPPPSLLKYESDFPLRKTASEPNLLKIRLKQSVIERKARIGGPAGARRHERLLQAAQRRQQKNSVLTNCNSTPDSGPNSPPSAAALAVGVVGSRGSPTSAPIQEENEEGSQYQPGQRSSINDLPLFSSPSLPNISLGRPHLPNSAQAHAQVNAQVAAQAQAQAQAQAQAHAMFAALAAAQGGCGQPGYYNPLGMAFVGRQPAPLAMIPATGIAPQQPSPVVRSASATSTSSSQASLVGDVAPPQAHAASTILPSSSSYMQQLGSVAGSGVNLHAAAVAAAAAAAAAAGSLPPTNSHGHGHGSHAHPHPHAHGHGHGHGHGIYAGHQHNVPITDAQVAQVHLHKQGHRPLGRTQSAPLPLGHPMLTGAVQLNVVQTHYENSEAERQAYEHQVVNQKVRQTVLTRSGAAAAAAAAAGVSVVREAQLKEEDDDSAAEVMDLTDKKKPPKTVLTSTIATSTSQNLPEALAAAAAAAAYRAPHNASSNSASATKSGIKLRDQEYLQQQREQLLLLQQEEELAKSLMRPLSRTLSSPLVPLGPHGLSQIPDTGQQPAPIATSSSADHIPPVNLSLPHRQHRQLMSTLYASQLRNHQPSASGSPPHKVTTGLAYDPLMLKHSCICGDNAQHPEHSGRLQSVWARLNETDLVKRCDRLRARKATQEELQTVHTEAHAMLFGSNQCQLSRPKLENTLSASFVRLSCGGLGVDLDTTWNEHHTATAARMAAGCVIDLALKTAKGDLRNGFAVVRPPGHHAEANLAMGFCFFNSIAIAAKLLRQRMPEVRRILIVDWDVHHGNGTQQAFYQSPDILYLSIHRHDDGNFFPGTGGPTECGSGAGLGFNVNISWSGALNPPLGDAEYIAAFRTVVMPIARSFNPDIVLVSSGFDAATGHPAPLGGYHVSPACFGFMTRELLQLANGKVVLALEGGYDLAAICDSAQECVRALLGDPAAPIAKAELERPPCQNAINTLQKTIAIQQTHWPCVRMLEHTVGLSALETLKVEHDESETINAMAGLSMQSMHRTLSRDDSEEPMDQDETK
Test: co-IP; HDAC4 immunoprecipitated from total lysate of 3rd instar larvae, processed as for Foxo; KDM5 detected by Western blot

## KDM5 (endogenous, 3rd instar larval extract) (from UniProt Q9VMJ7 1-1838)
  binding: binds
